Data as given in PubChem BioAssay AID504791 (Drosophila RNAi Screening Center, 2011).
The deposit covers about 23,000 reagents; shown is an unselected part of those that have a named target and a result. Over the whole deposit, 199 (0.86%) are marked active. 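Plate-scaled ratios behind the calls are not deposited; printed light signals are raw; many rows marked increased or decreased are still called inactive.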 Not stated in the record: the direction of the score.

- Test: 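Genes of the fly required for silencing by miRNA, siRNA or endo-siRNA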 (primary screen)
- Cell system: Drosophila S2-derived reporter cells
- Reagent: long dsRNA against Drosophila genes, about 150-250 ng dsRNA per well (siRNA assay); about 80-120 ng (miRNA assay)
- Timing: about 5 days (siRNA assay); about 4 days (miRNA assay)
- Treatment: copper sulfate induction of reporters: 25 µM (siRNA assay); 200 mM stated (miRNA assay), 1-2 days before reading
- Read-out: 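Per-well ratio of Renilla over firefly light, expressed relative to that plate's average ratio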
- Units: stable assay Renilla, run 1 in luminescence; stable assay firefly, run 1 in luminescence
- Call rule: 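First-pass picks had plate-scaled ratios over 1.5 for the siRNA assay, over 1.6 for the miRNA assay, or under 0.6; two distinct dsRNAs had to score alike on retest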

RpS9 (GeneID 39108) [DRSC11273] showed miRNA reporter change reporter ratio lowered past the hit cutoff; stable assay Renilla, run 1 = 6724; stable assay firefly, run 1 = 3.03e5; active.
After knock-down of Hsp110 (GeneID 39557) [DRSC11186], the screen gave stable assay Renilla, run 1 = 10886; stable assay firefly, run 1 = 4.42e5; inactive.
SppL (GeneID 43128) [DRSC15228] gave stable assay Renilla, run 1 = 6748; stable assay firefly, run 1 = 3.37e5; inactive.
bdwf (GeneID 42057) [DRSC15532] showed stable assay Renilla, run 1 = 9363; stable assay firefly, run 1 = 3.24e5; inactive.
CG18748 (GeneID 59144) [DRSC15385] scored stable assay Renilla, run 1 = 7330; stable assay firefly, run 1 = 5.07e5; inactive.
Knock-down of CG10433 (GeneID 37458) [DRSC04068] resulted in: stable assay Renilla, run 1 = 8465; stable assay firefly, run 1 = 1.13e6; inactive.
CG31233 (GeneID 42557) [DRSC15888] scored stable assay Renilla, run 1 = 6368; stable assay firefly, run 1 = 3.37e5; inactive.

Entries listed so far with an active call:
RpS9 (GeneID 39108) [DRSC11273] | miRNA reporter change = reporter ratio lowered past the hit cutoff; stable assay Renilla, run 1 = 6724; stable assay firefly, run 1 = 3.03e5; call = active

Continued.
Depletion of Prosbeta5 (GeneID 45269) [DRSC07517] resulted in: stable siRNA reporter change reporter ratio raised past the hit cutoff; miRNA reporter change reporter ratio raised past the hit cutoff; stable assay Renilla, run 1 = 7803; stable assay firefly, run 1 = 1.73e5; active.
With knock-down of CG42676 (GeneID 2768999) [DRSC08227], the record shows stable assay Renilla, run 1 = 7555; stable assay firefly, run 1 = 1.92e5; inactive.
Knock-down of CG42676 (GeneID 2768999) [DRSC08392] resulted in: stable assay Renilla, run 1 = 5171; stable assay firefly, run 1 = 3.32e5; inactive.
dpr18 (GeneID 32572) [DRSC19606] gave stable assay Renilla, run 1 = 3947; stable assay firefly, run 1 = 3.00e5; inactive.
After knock-down of 5-HT2A (GeneID 40575) [DRSC11990], the screen gave stable assay Renilla, run 1 = 9062; stable assay firefly, run 1 = 3.80e5; inactive.
